Assay results reported in US20040038338A1, “Influence of LRP cytoplasmic domain on Abeta production” (priority 2001, published 2004).
“Also recorded” adds a separate entry of the source.

System: LRP−/− fibroblasts
Experiment: Cell surface biotinylation, blot for LRP
Assay type: cell-based, mouse
Conditions: streptavidin precipitation, LRP antibody 1704

B1: LRP-CT: last 370 amino acids of the LRP β-subunit, transmembrane domain and entire cytoplasmic region, with signal peptide (protein)
chain: KRLDNGTCVPVPSPTPPPDAPRPGTCNLQCFNGGSCFLNARRQPKCRCQPRYTGDKCELDQCWEHCRNGGTCAASPSGMPTCRCPTGFTGPKCTQQVCAGYCANNSTCTVNQGNQPQCRCLPGFLGDRCQYRQCSGYCENFGTCQMAADGSRQCRCTAYFEGSRCEVNKCSRCLEGACVVNKQSGDVTCNCTDGRVAPSCLTCVGHCSNGGSCTMNSKMMPECQCPPHMTGPRCEEHVFSQQQPGHIASILIPLLLLLLLVLVAGVVFWYKRRVQGAKGFQHQRMTNGAMNVEIGNPTYKMYEGGEPDDVGGLLDADFALDPDKPTNFTNPVYATLYMGGHGSRHSLASTDEKRELLGRGPEDEIGDPLA
For B1, the “transport of the construct to the cell surface” value was “reaches the cell surface similarly to full length LRP; also recorded: transported to the cell surface”.
